The results in this text go back to ChEMBL document CHEMBL4513149, “CO-ADD screening of MMV (CH) - MMV compounds” (2021).

Molecules are shown by their SMILES. The list shows a part of the results. Potency and affinity values are given separately.

In the experiment the test system is Acinetobacter baumannii. The settings on record: Concentration 20 uM; ASSAY_TEST Inhibition of Bacterial Growth; detection method Absorption (OD600); MEDIA CAMHB; plate type 384well; NBS; CORNING #3640; time 18 hr.
For orientation: Inhibition means the change of the read-out against control, counted positive when it falls. Consider `CC(C)(C(=O)Nc1ccc(F)cc1)n1cc(-c2ccccc2F)cn1`, for which the Inhibition amounted to 2.99%.
For `O=C(C1CCCCC1)N1CC(=O)N2CCc3ccccc3C2C1` (stereo not drawn) [PRAZIQUANTEL], the Inhibition worked out at 8.03%.
The value for `C[C@]1(O)C[C@@H](c2nc(-c3ccc4ccc(-c5ccccc5)nc4c3)c3c(N)nccn32)C1` [LINSITINIB] was 1.08%; that for `CC1=Nc2ccc(Cl)cc2C(O)(c2ccc(C)cc2)N1CCN1CCCCC1` (stereo not drawn) was 18.37%.
The figure for `Cc1c[nH]c(CCNC(=O)c2cc(-c3ccc(Cl)cc3)cs2)n1` is 12.2%; for `CS(=O)(=O)c1ccccc1C(=O)N(Cc1ccccc1)c1ccccc1` it is 7.41%.
The value for `Cc1ccc(Oc2ccc(NC(=O)CNc3ccccc3N3CCCC3=O)cc2)cc1` was -1.28%.
Regarding `O=C(Nc1cnc2ccccc2c1)c1cccc(-n2cnnn2)c1`, the Inhibition was 9.83%.
The value for `O=C(Nc1nc(-c2ccccn2)cs1)C1CC1c1ccccc1F` (stereo not drawn) was 3.08%; that for `CCc1ccc([C@@H]2C[C@H](C(F)(F)F)n3ncc(C(=O)NCc4ccc(OC)cc4)c3N2)cc1` was 6.65%; that for `CC(C)(CN)c1nc(-c2ccc(Cl)c(O)c2)c(-c2ccnc(N)n2)[nH]1.O=C(O)C(F)(F)F.O=C(O)C(F)(F)F` was 11.71%.
The value for `CCc1nc2ccccc2n1CC(O)COc1cc(C)ccc1Cl` (stereo not drawn) was 9.63%.
The value for `c1ccc(Oc2ccc(-c3cc(CN4CCOCC4)[nH]n3)cc2)cc1` was 5.65%; that for `Cc1ccc2oc(-c3cc(NC(=O)Cc4ccccc4)ccc3Cl)nc2c1` was 11.57%; that for `COc1ccc(CCN2CCC(NCc3cccc(N(C)C)c3)CC2)cc1` was 7.23%.
For the compound `Cc1nc2ccccn2c1C(=O)NCc1ccc(Cl)cc1`, the Inhibition turned out to be 7.73%.
The figure for `Cc1cc(C(=O)Nc2ccc(-c3ccccc3)cc2)no1` is 11.25%; for `CCc1ccc(S(=O)(=O)Nc2cc(CN3CCN(CCC(C)C)CC3)ccc2C)cc1` it is 13.11%; for `COC(=O)c1c(NC(=O)c2cc3ccccc3oc2=O)sc2c1CCN(Cc1ccccc1)C2` it is -0.26%.
The value for `CCc1ccccc1-n1c(C)cn2c3c(=O)n(C(C(=O)OC)C(C)C)c(=O)n(C)c3nc12` (stereo not drawn) was 5.63%; that for `Cc1[nH]c2cc(F)cc(F)c2c(=O)c1-c1ccc(Oc2ccc(OC(F)(F)F)cc2)cc1` was 8.69%; that for `CC(C)(C)c1cnc(NC(=O)c2ccccc2O)s1` was 6.13%.
With `NS(=O)(=O)c1cccc(-c2ccc3ncc(N4CCOCC4)nc3c2)c1`, the Inhibition is given as 8.42%.
For `CC(C)(C)n1nc(Cc2cccc3ccccc23)c2c(N)ncnc21`, the Inhibition is listed as 4.84%.
The figure for `COc1ccc(N(CCc2cccc(C)n2)C(C)=O)cc1` is 12.66%; for `COc1cc2ncnc(NC3CCN(Cc4ccccc4)CC3)c2cc1OC` it is 8.99%.
The figure for `FC(F)(F)c1cc(NCCc2ccccc2)nc(-c2ccccn2)n1` is 10.16%.
The value for `Cc1nnc(NCc2cccc(Cl)c2)c2ccccc12` was 12.22%; that for `CCc1nc2ccc(Cl)cn2c1C(=O)NCc1ccc(N2CCC(c3ccc(OC(F)(F)F)cc3)CC2)cc1` [TELACEBEC] was 10.44%.
Consider `COc1ccc(N(CCc2cccc(C)n2)C(=O)C2CCCCC2)cc1`, for which the Inhibition is listed as 6.01%.
The figure for `Cc1ccc(NC(=O)c2nc[nH]c2C(=O)Nc2nc3ccccc3[nH]2)c(C)c1` is 2.26%.
The value for `CCc1nc2ccc(C(=O)NCc3ccc4c(c3)OCO4)cn2c1N(C)Cc1cccs1` was 7.8%; that for `CC(C)(C)n1nc(Cc2ccc(F)c(Cl)c2)c2c(N)ncnc21` was 5.26%; that for `Cc1nc(-c2ccccn2)nc(NCCc2ccc(S(C)(=O)=O)cc2)c1Cl` was 11.73%.
The figure for `O=C(NC1CC1)c1ccc(N2CCOc3ccc(Cl)cc32)s1` is 10.81%; for `COc1ccc2nc(C)cc(OCC(=O)NCc3ccccc3)c2c1` it is 10.89%; for `c1coc(CNc2nc(N3CCCCC3)nc3ccccc23)c1` it is 7.77%.
With `O=C(N[C@H](Cc1ccccc1)C(=O)Nc1ccccc1N1CCOCC1)c1cccs1`, the Inhibition amounted to 12.49%.
Regarding `Cl.O[C@@H](c1cc(C(F)(F)F)nc2c(C(F)(F)F)cccc12)[C@H]1CCCCN1`, the Inhibition came out at 13.75%.
The value for `O=C1COCc2ccc(Br)cc2N1Cc1ccc(C(F)(F)F)cc1` was 13.16%.
The figure for `CC(C)(C)c1cc(C(=O)Nc2cccnc2)cc(C(=O)Nc2cccnc2)c1` is 9.41%; for `Nc1ncnc2c1ncn2C[C@@H](O)[C@@H](O)C(=O)O` [ERITADENINE] it is 10.49%; for `COCC(C)NC(=O)CSc1ncnc2sc(-c3ccccc3)cc12` (stereo not drawn) it is 8.68%.
The figure for `c1ccc(-c2cc(N3CCCCC3)c3ccccc3n2)nc1` is 9.44%.
Take `O=C(c1ccc(NCCO)cc1)C1C[C@H]1c1ccc(Cl)cc1` (stereo partly drawn): the Inhibition stood at 6.14%.
The figure for `COc1cccc(CC(=O)N2CCC(n3c(C)nc4ccc(F)cc43)CC2)c1` is 10.01%; for `Nc1nc(N)c2c3c(sc2n1)CN(Cc1ccccc1)CC3` it is 8.25%.
Turning to `c1ccc(Oc2ccc(-c3cncc(-c4ccc5[nH]ccc5c4)n3)cc2)cc1`, the Inhibition was -3.91%.
The figure for `COc1cc(C2=NCCN2)ccc1-n1cc(-c2cccc(C3=NCCN3)c2)nn1.O=CO.O=CO` is 14.98%; for `COc1ccc(-c2nnc3ccc(-c4cccc(C(C)C)c4)cn23)cc1OC` it is -4.84%.
The value for `Cc1cc(OCC(=O)Nc2ccc(C(C)C)cc2)n(C)c(=O)c1C#N` was -2.1%; that for `COC(=O)c1cccc2oc(-c3cccc(OC)c3NC(=O)c3cc(-c4ccccc4)on3)nc12` was 11.12%.
For the compound `COc1cc(OC)cc(C(=O)NCC2Cc3cc(Cl)cc(-c4ccncc4)c3O2)c1` (stereo not drawn), the Inhibition was 4.32%.
The value for `O=C(NCCc1ccccc1)c1cc(-c2cccnc2)cnc1NCC1CC1` was -10.88%; that for `Nc1nccc2ccc(Oc3ccncc3)cc12` was 15.12%; that for `CCC(NC(=O)c1ccccc1NC(=O)c1ccc(C)cc1)C(=O)OC` (stereo not drawn) was 4.67%.
The value for `O=C(Nc1ccnc(-c2cccnc2)n1)c1cc(C(F)(F)F)cc(C(F)(F)F)c1` was 15.41%.
The value for `NCC(=O)N1CCn2c(nc(-c3ccccc3)c2Nc2ccc3c(c2)OCO3)C1` was 6.29%; that for `c1ccc(Oc2ccc(-c3cc(C4CCOCC4)[nH]n3)cc2)cc1` was 4.43%; that for `CCc1ccc(C(NCc2nc(N)nc(N(C)C)n2)C(C)C)cc1` (stereo not drawn) was 8.61%.
For the compound `Cc1cc2nc(NC(=O)C(C)(C)C)nc(Cl)c2n1Cc1ccc(Cl)cc1`, the Inhibition is 5.01%.
The value for `CN1CCCN(C(c2ccccc2)c2ccc(Cl)cc2)CC1` (stereo not drawn) [HOMOCHLORCYCLIZINE] was 11.17%.
The value for `COc1ccc(C2=NN(C3CCCCCC3)C(=O)C2(C)C)cc1OCCCCOc1ccc(-c2nn[nH]n2)cc1` was 13.38%; that for `Cc1ccc2nc(Cl)c(CNCc3cccs3)cc2c1` was 3.22%; that for `Cc1ccc(NC(=O)c2cc(S(=O)(=O)NC(C)(C)C)ccc2C)nc1` was 13.83%.
On to `CN1CCN(c2cc(-c3ccc(F)cc3)nc(-c3ccncc3)n2)CC1`, for which the Inhibition was 6.73%.
The value for `O=C(NCCc1ccn(-c2ccccc2)n1)C1CCCCC1` was 10.96%; that for `Cc1ncc(-c2ccnc(Nc3ccc(S(C)(=O)=O)cc3)n2)n1C(C)C` [AZD-5438] was 12.12%.
As for `Cc1cc(Cl)ccc1NC(=O)CCc1ccc(S(=O)(=O)NCC(C)C)cc1`, the Inhibition was 10.28%.
The figure for `Cl.NCC(c1cccs1)S(=O)(=O)c1ccccc1` (stereo not drawn) is 4.77%.
The value for `Cc1cc(C)n2nc(C(=O)Nc3cc(C(F)(F)F)ccc3N3CCOCC3)nc2n1` was 13.07%; that for `Cc1cc(OCC(=O)NCc2ccccc2)c2cc(Br)ccc2n1` was -1.87%; that for `CCCS(=O)(=O)N1CCC(CO)(Cc2ccccc2C(F)(F)F)CC1` was 8.39%.
Turning to `Nc1ncnc2c1c(Cc1cccc3ccccc13)nn2CC1CCNCC1`, the Inhibition was 4.89%.
The value for `C[C@H](C(N)=O)N1CCCC[C@@H]1c1ccc(OCc2cccc(F)c2)cc1` was 8.68%.
`CC(C)(C)CN1C(=O)C(c2ccccc2)(c2ccccc2)N=C1N`: the Inhibition stood at 15.35%.
The value for `CS(=O)(=O)c1cccc(-c2cnc3[nH]cc(-c4ccc(CCC(=O)O)cc4)c3c2)c1` was 9.12%.
`CCOC(=O)c1cc(-c2csc(Nc3c(C)cc(C)cc3C)n2)on1`: the Inhibition turned out to be 7.91%.
With `CN1CCN(c2nccc3nc(-c4ccc(F)c(F)c4)[nH]c23)CC1`, the Inhibition was found to be 9.15%.
The figure for `NC(=O)c1cc(Br)ccc1OCCOc1ccccc1` is -15.42%.
The value for `O=C(C1CCN(c2nnc(-n3cccc3)s2)CC1)N1CCC(Cc2ccccc2)CC1` was 8.47%.
The value for `O=C(Nc1c(O)cccc1-c1nc2c(C(=O)O)cccc2o1)c1cc(-c2ccccc2)on1` was 3.59%; that for `CCN(CC)CCCCCCNc1cc(OC)cc2c(C)ccnc12.Cc1ccc(S(=O)(=O)O)cc1` was 19.24%.
Regarding `C[C@H](C(N)=O)N1CCCC[C@H]1c1ccc(OCc2cccc(F)c2)cc1`, the Inhibition is recorded as 8.36%.
In the case of `CN1CCC(c2cc(-c3ccncc3)c(-c3ccc(F)cc3)[nH]2)CC1`, the Inhibition came out at 12.09%.
The figure for `O=C(Nc1cccc(Cl)c1)c1cnc(N2CCN(c3ccncc3)CC2)c(Cl)c1` is 8.05%; for `CC1(COc2ccc(N3CCC(Oc4ccc(OC(F)(F)F)cc4)CC3)cc2)Cn2cc([N+](=O)[O-])nc2O1` (stereo not drawn) it is 8.97%.
With `CC(C(=O)Nc1ccc2oc(-c3ccncc3)nc2c1)c1ccccc1` (stereo not drawn), the Inhibition is listed as 5.27%.
The figure for `CCOc1ccc(OCC(=O)Nc2cc(C)cc(C)c2)cc1` is 0.05%; for `Cc1cc(C)cc(COc2ccc3c(C)c(CCC(=O)O)c(=O)oc3c2C)c1` it is 11.24%.
Turning to `Nc1ncc(Br)cc1-c1nc2cc(Cl)cnc2[nH]1`, the Inhibition worked out at 11.57%.
The value for `CN(C(=O)c1cc2c(-c3cncnc3)cccc2[nH]1)c1ccccc1` was -2.72%.
As for `CN(C)CCNC(=O)N1CCCN(c2ncnc3cc(-c4ccccc4)sc23)CC1`, the Inhibition came to 11.59%.
